From the M2OR odorant receptor database
The entries are a selection whose mix differs from that of the whole data set. Calls are pooled over several reports, among them a noisy single-well screen. The list shows a part of the results.

The chains behind the UniProt entries cited, without tags or fusion partners. Where a name states a change or a piece, a line headed by the entry shows the natural chain unless it says otherwise.
UniProt Q8NH94: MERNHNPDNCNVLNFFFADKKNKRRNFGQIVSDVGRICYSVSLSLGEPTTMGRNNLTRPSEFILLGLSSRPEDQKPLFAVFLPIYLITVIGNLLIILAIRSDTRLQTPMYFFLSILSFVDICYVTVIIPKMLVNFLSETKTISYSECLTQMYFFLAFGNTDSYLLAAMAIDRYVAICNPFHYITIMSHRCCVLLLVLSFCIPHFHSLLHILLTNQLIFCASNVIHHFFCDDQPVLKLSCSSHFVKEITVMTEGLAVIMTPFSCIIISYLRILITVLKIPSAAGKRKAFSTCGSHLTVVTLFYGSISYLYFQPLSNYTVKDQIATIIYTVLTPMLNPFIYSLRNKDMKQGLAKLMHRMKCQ

Assays:
Conditions in all cases: stereoisomer not certain
OR1F1 = tested on: T1, OR1F1
T1 sequence (whole entry): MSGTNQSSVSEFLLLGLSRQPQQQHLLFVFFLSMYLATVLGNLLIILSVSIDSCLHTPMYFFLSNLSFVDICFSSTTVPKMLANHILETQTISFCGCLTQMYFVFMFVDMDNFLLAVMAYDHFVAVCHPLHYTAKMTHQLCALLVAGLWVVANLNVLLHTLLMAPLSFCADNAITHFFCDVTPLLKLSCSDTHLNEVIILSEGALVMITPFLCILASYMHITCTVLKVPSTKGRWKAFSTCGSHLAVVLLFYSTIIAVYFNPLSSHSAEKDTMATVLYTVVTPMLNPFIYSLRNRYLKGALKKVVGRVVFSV
How it was run: (§1)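 Each entry records the cell line, G-protein, co-transfected protein and tags used. Methods varied with the source, often transient luciferase assays in mammalian cell lines. A receptor–molecule pair is called responsive (active) if the original authors judged its signal statistically different from baseline and non-responsive (inactive) otherwise.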

OR1FC = tested on: T2, OR1FC
T2 sequence (whole entry): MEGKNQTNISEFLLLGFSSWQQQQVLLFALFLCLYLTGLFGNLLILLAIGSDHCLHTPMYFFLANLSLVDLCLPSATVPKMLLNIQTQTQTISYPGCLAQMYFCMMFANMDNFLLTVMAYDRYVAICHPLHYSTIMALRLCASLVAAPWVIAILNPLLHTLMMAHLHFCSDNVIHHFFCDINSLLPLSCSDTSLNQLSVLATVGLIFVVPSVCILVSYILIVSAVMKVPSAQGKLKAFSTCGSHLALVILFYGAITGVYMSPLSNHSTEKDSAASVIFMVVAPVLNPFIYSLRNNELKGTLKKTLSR
How it was run: as §1

OR1G1 (Homo sapiens) = target: T3, OR1G1 (Homo sapiens) (UniProt P47890)
T3 sequence (whole entry): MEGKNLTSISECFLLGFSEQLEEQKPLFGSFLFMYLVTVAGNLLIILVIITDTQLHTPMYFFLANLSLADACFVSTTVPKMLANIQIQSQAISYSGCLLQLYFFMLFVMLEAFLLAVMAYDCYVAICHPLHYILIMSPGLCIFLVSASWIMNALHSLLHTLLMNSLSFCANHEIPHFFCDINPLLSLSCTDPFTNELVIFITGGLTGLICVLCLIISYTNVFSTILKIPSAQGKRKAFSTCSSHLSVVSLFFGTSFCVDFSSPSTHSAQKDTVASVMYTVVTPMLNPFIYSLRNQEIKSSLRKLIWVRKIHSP
How it was run: as §1

OR1I1 = tested on: T4, OR1I1
T4 sequence (whole entry): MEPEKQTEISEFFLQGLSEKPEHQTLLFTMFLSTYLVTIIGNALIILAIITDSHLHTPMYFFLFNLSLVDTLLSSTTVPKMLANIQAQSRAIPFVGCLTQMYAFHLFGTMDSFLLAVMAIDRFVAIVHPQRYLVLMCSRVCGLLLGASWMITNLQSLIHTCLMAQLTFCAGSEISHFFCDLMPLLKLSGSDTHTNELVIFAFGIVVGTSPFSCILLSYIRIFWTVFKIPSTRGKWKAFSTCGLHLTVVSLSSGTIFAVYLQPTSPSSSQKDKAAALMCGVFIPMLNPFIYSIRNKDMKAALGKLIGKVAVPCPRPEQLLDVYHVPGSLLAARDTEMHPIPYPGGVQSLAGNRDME
How it was run: as §1

OR1J1 (Homo sapiens) = target: T5, OR1J1 (Homo sapiens) (UniProt Q8NGS3)
T5 sequence (whole entry): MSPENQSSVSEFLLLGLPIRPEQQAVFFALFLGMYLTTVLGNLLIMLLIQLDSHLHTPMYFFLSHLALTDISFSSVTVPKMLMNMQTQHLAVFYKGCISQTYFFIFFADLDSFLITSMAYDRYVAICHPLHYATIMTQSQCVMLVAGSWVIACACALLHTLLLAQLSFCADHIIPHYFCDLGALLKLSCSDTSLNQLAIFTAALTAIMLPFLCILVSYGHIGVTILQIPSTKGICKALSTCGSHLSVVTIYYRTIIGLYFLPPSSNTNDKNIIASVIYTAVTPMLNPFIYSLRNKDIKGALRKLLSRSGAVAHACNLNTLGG
How it was run: as §1

OR1J2 (Homo sapiens) = target: T6, OR1J2 (Homo sapiens) (UniProt Q8NGS2)
T6 sequence (whole entry): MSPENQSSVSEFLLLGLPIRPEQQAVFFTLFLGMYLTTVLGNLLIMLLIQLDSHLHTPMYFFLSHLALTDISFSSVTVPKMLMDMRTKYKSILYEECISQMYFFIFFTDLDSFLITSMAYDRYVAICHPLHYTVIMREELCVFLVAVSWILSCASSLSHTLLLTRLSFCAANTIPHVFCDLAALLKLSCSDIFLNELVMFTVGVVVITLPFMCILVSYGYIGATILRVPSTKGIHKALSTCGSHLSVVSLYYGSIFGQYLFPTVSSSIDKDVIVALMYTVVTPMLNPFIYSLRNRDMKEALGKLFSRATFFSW
How it was run: as §1

OR1J4 (Homo sapiens) = target: T7, OR1J4 (Homo sapiens) (UniProt Q8NGS1)
T7 sequence (whole entry): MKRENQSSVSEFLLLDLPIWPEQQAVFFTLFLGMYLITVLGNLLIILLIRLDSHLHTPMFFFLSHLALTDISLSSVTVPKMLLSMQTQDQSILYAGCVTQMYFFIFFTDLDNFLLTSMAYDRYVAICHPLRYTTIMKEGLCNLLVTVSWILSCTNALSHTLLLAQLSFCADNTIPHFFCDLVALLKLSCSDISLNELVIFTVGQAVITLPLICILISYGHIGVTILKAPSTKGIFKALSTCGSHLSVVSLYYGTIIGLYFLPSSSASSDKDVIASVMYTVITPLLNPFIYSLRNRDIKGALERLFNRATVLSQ
How it was run: as §1

OR1K1 (Homo sapiens) = target: T8, OR1K1 (Homo sapiens) (UniProt Q8NGR3)
T8 sequence (whole entry): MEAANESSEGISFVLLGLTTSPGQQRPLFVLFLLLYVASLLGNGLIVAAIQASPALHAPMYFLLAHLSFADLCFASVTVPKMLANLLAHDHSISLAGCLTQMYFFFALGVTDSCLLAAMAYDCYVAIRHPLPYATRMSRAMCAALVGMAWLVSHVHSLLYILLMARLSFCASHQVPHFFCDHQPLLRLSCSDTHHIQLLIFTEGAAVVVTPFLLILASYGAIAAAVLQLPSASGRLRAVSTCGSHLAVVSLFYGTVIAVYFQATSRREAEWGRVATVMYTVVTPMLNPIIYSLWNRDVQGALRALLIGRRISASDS
How it was run: as §1

OR1I1 (Homo sapiens) = OR1I1 (Homo sapiens) (UniProt O60431)
How it was run: as §1

OR1L1 (Homo sapiens) = OR1L1 (Homo sapiens) (UniProt Q8NH94)
How it was run: as §1

Measured: odorant receptor agonist call

CC1COCc2cc3c(cc21)C(C)(C)C(C)C3(C)C (centres undefined)
not listed: OR1I1 (Homo sapiens) | OR1L1 (Homo sapiens)
active: all other assays above

CCCCO
active: OR1J4 (Homo sapiens)
not listed: OR1I1 (Homo sapiens) | OR1L1 (Homo sapiens)
inactive: all other assays above

O=CCc1ccccc1
active: OR1FC | OR1J1 (Homo sapiens)
not listed: OR1I1 (Homo sapiens) | OR1L1 (Homo sapiens)
inactive: all other assays above

CC=Cc1ccc(O)c(OC)c1
active: OR1FC | OR1J1 (Homo sapiens)
not listed: OR1I1 (Homo sapiens) | OR1L1 (Homo sapiens)
inactive: all other assays above

CCCCCOC(C)=O
not listed: OR1I1 (Homo sapiens) | OR1L1 (Homo sapiens)
inactive: all other assays above

CCCCCCCCCC=O
active: OR1G1 (Homo sapiens)
not listed: OR1I1 (Homo sapiens) | OR1L1 (Homo sapiens)
inactive: all other assays above

CCCCCCOC(=O)CCC
not listed: OR1I1 (Homo sapiens) | OR1L1 (Homo sapiens)
inactive: all other assays above

CCCCCC(=O)O
not listed: OR1I1 (Homo sapiens) | OR1L1 (Homo sapiens)
inactive: all other assays above

CCCCCCCCCCC=O
active: OR1G1 (Homo sapiens)
not listed: OR1I1 (Homo sapiens) | OR1L1 (Homo sapiens)
inactive: all other assays above

CC12C=CCC1C1CCC3CC(=O)CCC3(C)C1CC2 (centres undefined)
inactive: all assays above

CC1CCC(C(C)C)C(O)C1 (centres undefined)
active: OR1G1 (Homo sapiens) | OR1I1
not listed: OR1I1 (Homo sapiens) | OR1L1 (Homo sapiens)
inactive: all other assays above

c1cnccn1
active: OR1G1 (Homo sapiens)
not listed: OR1I1 (Homo sapiens) | OR1L1 (Homo sapiens)
inactive: all other assays above

CC(=O)OC1CC2CCC1(C)C2(C)C (centres undefined)
active: OR1FC
not listed: OR1I1 (Homo sapiens) | OR1L1 (Homo sapiens)
inactive: all other assays above

CC1=CCC(C(C)(C)O)CC1 (centres undefined)
not listed: OR1I1 (Homo sapiens) | OR1L1 (Homo sapiens)
inactive: all other assays above

CC(C)C(=O)O
not listed: OR1I1 (Homo sapiens) | OR1L1 (Homo sapiens)
inactive: all other assays above

C=CCc1ccc(OC)c(OC)c1
not listed: OR1I1 (Homo sapiens) | OR1L1 (Homo sapiens)
inactive: all other assays above

CCC1(O)C2(C)CCC(C2)C1(C)C (centres undefined)
not listed: OR1I1 (Homo sapiens) | OR1L1 (Homo sapiens)
inactive: all other assays above

CC(C)CCC(=O)O
not listed: OR1I1 (Homo sapiens) | OR1L1 (Homo sapiens)
inactive: all other assays above

CCCCCCCC=O
active: OR1G1 (Homo sapiens)
not listed: OR1I1 (Homo sapiens) | OR1L1 (Homo sapiens)
inactive: all other assays above

CC(=O)OCC=C(C)CCC=C(C)C
active: OR1FC
not listed: OR1I1 (Homo sapiens) | OR1L1 (Homo sapiens)
inactive: all other assays above

CCCCCCCOC(C)=O
not listed: OR1I1 (Homo sapiens) | OR1L1 (Homo sapiens)
inactive: all other assays above

c1ccc(Oc2ccccc2)cc1
not listed: OR1I1 (Homo sapiens) | OR1L1 (Homo sapiens)
inactive: all other assays above

COc1ccccc1O
active: OR1G1 (Homo sapiens)
not listed: OR1I1 (Homo sapiens) | OR1L1 (Homo sapiens)
inactive: all other assays above

CCCCCCCCOC(C)=O
not listed: OR1I1 (Homo sapiens) | OR1L1 (Homo sapiens)
inactive: all other assays above
